Paper doi:10.1101/2021.05.16.444380
No constants are given. Whether binding was seen depends on the method and setting. Binding seen in cells or lysates may run through a third protein. A result given as binding can be weak or reduced; the word gives no strength. Where a sequence is shown, tags or fusion partners need not be part of it.

Target: T1, Flag-WtipN (Xenopus) (UniProt A9LS46)
T1 sequence: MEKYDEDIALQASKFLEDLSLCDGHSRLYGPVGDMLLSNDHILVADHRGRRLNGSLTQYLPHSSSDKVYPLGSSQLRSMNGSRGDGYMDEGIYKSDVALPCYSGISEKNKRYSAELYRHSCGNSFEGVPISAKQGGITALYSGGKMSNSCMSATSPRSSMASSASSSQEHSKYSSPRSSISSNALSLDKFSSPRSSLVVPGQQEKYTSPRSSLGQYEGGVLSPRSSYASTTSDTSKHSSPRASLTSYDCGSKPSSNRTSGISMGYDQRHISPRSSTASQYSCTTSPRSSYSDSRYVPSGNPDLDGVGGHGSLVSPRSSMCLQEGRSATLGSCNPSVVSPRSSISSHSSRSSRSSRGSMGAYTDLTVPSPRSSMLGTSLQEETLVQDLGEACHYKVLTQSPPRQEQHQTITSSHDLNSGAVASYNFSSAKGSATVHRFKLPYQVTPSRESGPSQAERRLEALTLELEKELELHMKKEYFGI
Assay: co-IP

binding: binds
Substance: GFP-SSX2IP (Xenopus)
